The values that follow come from the supplement of paper PMC6143611.

For assay [1], the system named is Danio rerio larva rod photoreceptor outer segment. The experiment in a line: rod outer segment growth distance Dg, difference from same-week DMSO control mean; higher = more outer segment growth. Conditions: 20 µM; treatment time: 4 days (6-10 dpf).
Assay [2] has the same test system. Kind of assay: rod outer segment shedding distance Ds, difference from same-week DMSO control mean; higher = less outer segment shedding. Conditions: 20 µM; treatment time: 4 days (6-10 dpf).

SMILES strings stand for the structures. Counter-ions that a name gives are not always drawn. ± gives the uncertainty stated by the source. This is one part of the list. Plates or batches differ in their baseline, so values are only roughly comparable.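 A heat-shock-induced fluorescent stripe was set in larval rod outer segments at 6 dpf. Shedding distance ran from stripe to outer segment tip, measured by confocal stacks in about three fish per compound. Controls: 0.2% DMSO vehicle. Flagged compounds showed ≥20% change from same-week control, p < 0.001 (Dunnett test on mixed-effects models).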

As for `NNc1nncc2ccccc12` [Hydralazine HCl], the “rod outer segment growth distance Dg” value in assay [1] is -0.38 ± 0.27 um. Moreover, the “rod outer segment shedding distance Ds” value in assay [2] was -0.55 ± 0.17 um.

For `C[C@H](CCC(=O)O)[C@H]1CC[C@H]2[C@@H]3[C@@H](O)C[C@@H]4C[C@H](O)CC[C@]4(C)[C@H]3CC[C@]12C` [Ursodiol], the “rod outer segment growth distance Dg” value in assay [1] was -1.23 ± 0.22 um. For the same compound, the “rod outer segment shedding distance Ds” value in assay [2] amounted to 0.76 ± 0.15 um.

Take `CCOC(=O)c1ccc(N2NC(=O)C(=Cc3ccc([N+](=O)[O-])o3)C2=O)cc1`: in assay [1], the “rod outer segment growth distance Dg” value was -0.87 ± 0.2 um. In addition, the “rod outer segment shedding distance Ds” value in assay [2] was -0.5 ± 0.29 um.

Take `CC(C(=O)O)c1cccc(Oc2ccccc2)c1` (stereo unspecified) [Fenoprofen Calcium]: the “rod outer segment growth distance Dg” value in assay [1] is -0.47 ± 0.21 um. In addition, the “rod outer segment shedding distance Ds” value in assay [2] is -0.63 ± 0.15 um.

Take `Cc1ccc(NC(=O)c2cccc(C(C)(C)C#N)c2)cc1Nc1ccc2ncn(C)c(=O)c2c1`: the “rod outer segment growth distance Dg” value in assay [1] was -0.95 ± 0.17 um. Also, the “rod outer segment shedding distance Ds” value in assay [2] was -0.65 ± 0.1 um.

For `c1ccc2[nH]c(-c3cscn3)nc2c1` [Thiabendazole], the “rod outer segment growth distance Dg” value in assay [1] is -0.43 ± 0.22 um. In addition, the “rod outer segment shedding distance Ds” value in assay [2] was -0.12 ± 0.16 um.

For `NC(=O)c1cnccn1` [Pyrazinamide], in assay [1], the “rod outer segment growth distance Dg” value is -0.32 ± 0.23 um. Further, the “rod outer segment shedding distance Ds” value in assay [2] was -0.26 ± 0.18 um.

For `CC(=O)Nc1ccc(C(=O)Nc2ccccc2N)cc1` [CI994 (Tacedinaline)], the “rod outer segment growth distance Dg” value in assay [1] was -0.23 ± 0.18 um. Also, the “rod outer segment shedding distance Ds” value in assay [2] was 0.6 ± 0.14 um.

With `Nc1nc(=O)[nH]cc1F` [Flucytosine], in assay [1], the “rod outer segment growth distance Dg” value is 0.57 ± 0.26 um. For the same compound, the “rod outer segment shedding distance Ds” value in assay [2] amounted to 0.3 ± 0.21 um.

As to `O=C(Nc1ccccc1)c1cc([N+](=O)[O-])ccc1Cl`, the “rod outer segment growth distance Dg” value in assay [1] was -0.95 ± 0.15 um. Also, the “rod outer segment shedding distance Ds” value in assay [2] came to 0.14 ± 0.13 um.

As to `Cc1ccc(Nc2nccc(N(C)c3ccc4c(C)n(C)nc4c3)n2)cc1S(N)(=O)=O` [Pazopanib], the “rod outer segment growth distance Dg” value in assay [1] is -0.35 ± 0.19 um. Besides, the “rod outer segment shedding distance Ds” value in assay [2] amounted to 0.01 ± 0.13 um.

As to `CC(C)(OCc1nn(Cc2ccccc2)c2ccccc12)C(=O)O` [Bindarit], the “rod outer segment growth distance Dg” value in assay [1] turned out to be 0.03 ± 0.17 um. Besides, the “rod outer segment shedding distance Ds” value in assay [2] stood at 0.11 ± 0.17 um.

`Nc1ncnc2c1ncn2[C@@H]1O[C@H](CO)[C@@H](O)[C@@H]1O` [Vidarabine]: the “rod outer segment growth distance Dg” value in assay [1] is 0.07 ± 0.2 um. In assay [2], the “rod outer segment shedding distance Ds” value was -0.09 ± 0.13 um.

Regarding `O=C(O)CSCC(=O)NC1CCSC1=O` (stereo unspecified) [Erdosteine], in assay [1], the “rod outer segment growth distance Dg” value was -0.27 ± 0.25 um. In addition, the “rod outer segment shedding distance Ds” value in assay [2] was -0.38 ± 0.17 um.

Take `Cc1ccc([C@@H]2O[C@H](CO)[C@@H](O)[C@H](O)[C@H]2O)cc1Cc1ccc(-c2ccc(F)cc2)s1` [Canagliflozin]: in assay [1], the “rod outer segment growth distance Dg” value was 0.15 ± 0.12 um. Besides, the “rod outer segment shedding distance Ds” value in assay [2] turned out to be 0.21 ± 0.12 um.

For `COc1cc2nc(N3CCN(C(=O)C4CCCO4)CC3)nc(N)c2cc1OC` (stereo unspecified) [Terazosin HCl], the “rod outer segment growth distance Dg” value in assay [1] turned out to be 0.15 ± 0.21 um. Moreover, the “rod outer segment shedding distance Ds” value in assay [2] is -0.63 ± 0.25 um.

Consider `CCCCCCCCOc1ccccc1C(=O)Nc1ccc(C(=O)OCC[N+](C)(CC)CC)cc1` [Otilonium Bromide], for which the “rod outer segment growth distance Dg” value in assay [1] is 1.22 ± 0.14 um. In addition, the “rod outer segment shedding distance Ds” value in assay [2] was 0.33 ± 0.12 um.

`Oc1ccc(/C=C/c2cc(O)cc(O)c2)cc1` [Resveratrol]: in assay [1], the “rod outer segment growth distance Dg” value is -0.98 ± 0.22 um. The “rod outer segment shedding distance Ds” value in assay [2] was -0.29 ± 0.31 um.

With `O=C(O)c1cccnc1` [Nicotinic Acid], the “rod outer segment growth distance Dg” value in assay [1] was -0.17 ± 0.23 um. Further, the “rod outer segment shedding distance Ds” value in assay [2] is -0.42 ± 0.17 um.

With `CC(C)(Oc1ccc(C2CC2(Cl)Cl)cc1)C(=O)O` (stereo unspecified) [Ciprofibrate], in assay [1], the “rod outer segment growth distance Dg” value is -0.96 ± 0.23 um. Besides, in assay [2], the “rod outer segment shedding distance Ds” value was -0.04 ± 0.13 um.

Consider `CCn1c(N)c(C(=O)NC)c(=O)c2ccc(C#CC(C)(O)COC)nc21` (stereo unspecified), for which the “rod outer segment growth distance Dg” value in assay [1] was found to be 0.44 ± 0.16 um. For the same compound, the “rod outer segment shedding distance Ds” value in assay [2] is -0.07 ± 0.12 um.

Take `COc1cccc2c1C(=O)c1c(O)c3c(c(O)c1C2=O)C[C@@](O)(C(=O)CO)C[C@@H]3O[C@H]1C[C@H](N)[C@@H](O)[C@H](C)O1` [Epirubicin HCl]: the “rod outer segment growth distance Dg” value in assay [1] is -0.59 ± 0.19 um. The “rod outer segment shedding distance Ds” value in assay [2] was -0.6 ± 0.21 um.

As for `O=C(N[C@H](CO)[C@H](O)c1ccc([N+](=O)[O-])cc1)C(Cl)Cl` [Chloramphenicol], the “rod outer segment growth distance Dg” value in assay [1] came out at 0.5 ± 0.21 um. The “rod outer segment shedding distance Ds” value in assay [2] is 0.62 ± 0.2 um.

Take `COc1ccc2cc3[n+](cc2c1OC)CCc1cc2c(cc1-3)OCO2` [Berberine HCl]: the “rod outer segment growth distance Dg” value in assay [1] was -0.83 ± 0.37 um. Also, the “rod outer segment shedding distance Ds” value in assay [2] was -0.11 ± 0.41 um.

For `Cc1ccc(S(=O)(=O)NC(=O)NN2CC3CCCC3C2)cc1` (stereo unspecified) [Gliclazide], the “rod outer segment growth distance Dg” value in assay [1] is -0.78 ± 0.25 um. In assay [2], the “rod outer segment shedding distance Ds” value was -0.7 ± 0.15 um.

As for `NC(CO)C(=O)NNCc1ccc(O)c(O)c1O` (stereo unspecified) [Benserazide HCl], in assay [1], the “rod outer segment growth distance Dg” value came out at 0.38 ± 0.25 um. Besides, in assay [2], the “rod outer segment shedding distance Ds” value is -0.02 ± 0.28 um.

Regarding `Cc1cnc(-c2cnc(NCCNc3ccc(C#N)cn3)nc2-c2ccc(Cl)cc2Cl)[nH]1`, the “rod outer segment growth distance Dg” value in assay [1] was -0.88 ± 0.22 um. Moreover, the “rod outer segment shedding distance Ds” value in assay [2] stood at 0.11 ± 0.17 um.

Consider `OC(CC1c2ccccc2-c2cncn21)C1CCCCC1` (stereo unspecified), for which the “rod outer segment growth distance Dg” value in assay [1] is -0.21 ± 0.22 um. In addition, the “rod outer segment shedding distance Ds” value in assay [2] is -0.27 ± 0.28 um.
